Experimental data from US20260159618A1, “COMPOUND, POLYMERIZABLE COMPOSITION, POLYMER, HOLOGRAPHIC RECORDING MEDIUM, OPTICAL MATERIAL, AND OPTICAL COMPONENT” (Mitsubishi Chemical Corporation, priority 2022, published 2026).

Experiment: Holographic recording, total Δn of holographic recording medium using the monomer
Design: key to total Δn (dash symbol): ⊚: 0.019 or more; ◯: 0.015 or more and less than 0.019; Δ: 0.010 or more and less than 0.015; x: less than 0.010; —: impossible to measure
Conditions: for total Δn: 405 nm two-beam recording, 151 multiple recordings, 0.5 mm recording layer, 58.3 μmol/g monomer, maximum value; for total Δn (dash symbol): sample not suitable for multiplex recording

Row | Compound | total Δn | total Δn (dash symbol)
1 | C=C(C)C(=O)OCCNC(=O)Oc1c(-c2cccc3c2sc2ccccc23)cc(-c2cccc3c2sc2ccccc23)cc1-c1cccc2c1sc1ccccc12 [Compound M-1] | 0.0222 | 
2 | C=C(C)C(=O)OCCNC(=O)Oc1c(-c2cc3ccccc3c3ccccc23)cc(-c2cc3ccccc3c3ccccc23)cc1-c1cc2ccccc2c2ccccc12 [Compound M-2] | 0.0250 | 
3 | C=CC(=O)OCCNC(=O)Oc1c(-c2cccc3c2sc2ccccc23)cc(-c2cccc3c2sc2ccccc23)cc1-c1cccc2c1sc1ccccc12 [Compound M-3] | 0.0195 | 
4 | C=CC(=O)OCCNC(=O)Oc1c(-c2cc3ccccc3c3ccccc23)cc(-c2cc3ccccc3c3ccccc23)cc1-c1cc2ccccc2c2ccccc12 [Compound M-4] | 0.0194 | 
5 | C=CC(=O)OCCOc1c(-c2cc3ccccc3c3ccccc23)cc(-c2cc3ccccc3c3ccccc23)cc1-c1cc2ccccc2c2ccccc12 [Compound M-10] | 0.0160 | 
6 | C=CC(=O)OCCCOc1c(-c2cc3ccccc3c3ccccc23)cc(-c2cc3ccccc3c3ccccc23)cc1-c1cc2ccccc2c2ccccc12 [Compound M-11] | 0.0181 | 
7 | C=CC(=O)OCCNC(=O)Oc1ccc(-c2cccc3c2sc2ccccc23)cc1-c1cccc2c1sc1ccccc12 [Compound R-1, reference compound] | 0.0115 | 
8 | C=CC(=O)Oc1c(-c2cccc3c2sc2ccccc23)cc(-c2cccc3c2sc2ccccc23)cc1-c1cccc2c1sc1ccccc12 [Compound R-2, reference compound] | 0.0070 | 
9 | C=CC(=O)OCCOc1c(-c2cccc3c2sc2ccccc23)cc(-c2cccc3c2sc2ccccc23)cc1-c1cccc2c1sc1ccccc12 [Compound R-3, reference compound] |  | —
10 | C=CC(=O)OCCCCOc1c(-c2cccc3c2sc2ccccc23)cc(-c2cccc3c2sc2ccccc23)cc1-c1cccc2c1sc1ccccc12 [Compound R-4, reference compound] |  | —
